Results on 1 substance are retold here after PMC9935901, “B-lymphoid tyrosine kinase-mediated FAM83A phosphorylation elevates pancreatic tumorigenesis through interacting with β-catenin” (Signal Transduction and Targeted Therapy, 2023).

Sequences of proteins named here, by UniProt entry; tags and fusion partners are left off. A change or cut given only in a name is not applied to a line headed by its entry.
UniProt P35222: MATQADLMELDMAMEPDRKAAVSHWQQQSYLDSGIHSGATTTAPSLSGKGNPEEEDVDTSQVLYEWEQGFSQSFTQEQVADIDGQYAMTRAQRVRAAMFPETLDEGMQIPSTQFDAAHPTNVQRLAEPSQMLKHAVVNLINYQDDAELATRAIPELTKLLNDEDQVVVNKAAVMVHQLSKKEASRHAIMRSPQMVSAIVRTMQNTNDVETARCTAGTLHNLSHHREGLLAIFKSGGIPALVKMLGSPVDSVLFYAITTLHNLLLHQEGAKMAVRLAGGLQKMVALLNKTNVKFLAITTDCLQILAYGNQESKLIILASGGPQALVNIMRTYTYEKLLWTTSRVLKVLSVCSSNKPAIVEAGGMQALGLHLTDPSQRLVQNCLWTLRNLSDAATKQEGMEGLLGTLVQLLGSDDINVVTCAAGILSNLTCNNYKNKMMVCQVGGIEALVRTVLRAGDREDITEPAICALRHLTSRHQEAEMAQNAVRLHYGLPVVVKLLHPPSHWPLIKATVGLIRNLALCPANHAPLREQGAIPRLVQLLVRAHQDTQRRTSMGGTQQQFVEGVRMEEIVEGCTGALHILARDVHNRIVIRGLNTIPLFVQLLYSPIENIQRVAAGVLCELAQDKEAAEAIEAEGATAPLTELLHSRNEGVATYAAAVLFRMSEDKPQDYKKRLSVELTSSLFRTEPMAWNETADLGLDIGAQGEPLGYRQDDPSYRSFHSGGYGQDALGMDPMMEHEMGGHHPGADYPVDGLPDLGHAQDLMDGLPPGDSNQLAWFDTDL
UniProt Q86UY5: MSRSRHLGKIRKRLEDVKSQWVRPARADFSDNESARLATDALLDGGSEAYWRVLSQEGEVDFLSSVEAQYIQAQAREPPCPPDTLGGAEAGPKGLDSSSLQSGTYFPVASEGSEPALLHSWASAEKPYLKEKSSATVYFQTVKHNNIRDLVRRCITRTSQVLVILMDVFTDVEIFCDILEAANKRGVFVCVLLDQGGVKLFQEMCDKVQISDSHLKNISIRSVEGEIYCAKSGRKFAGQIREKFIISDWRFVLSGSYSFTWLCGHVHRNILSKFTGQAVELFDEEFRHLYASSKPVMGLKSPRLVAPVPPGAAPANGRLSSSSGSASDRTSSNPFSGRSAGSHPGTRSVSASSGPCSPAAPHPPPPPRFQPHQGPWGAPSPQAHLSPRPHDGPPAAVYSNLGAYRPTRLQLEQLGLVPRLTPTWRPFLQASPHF

No constants are given. Whether binding was seen depends on the method and setting. Binding seen in cells or lysates may run through a third protein. Binding calls can cover weak binding; strength is not graded here.

In this test the target is β-catenin (construct not stated) (UniProt P35222). In words: co-IP; HEK293T cells transfected for 48 h, IP and western blotting; with or without BLK, FAM83A wild type, Y138A or Y138D, saracatinib. A general note: In western blotting, separated proteins are transferred to a membrane and probed.

“DUF1669 domain of FAM83A (from UniProt Q86UY5) (domain or fragment)”: the binding result is “binds”.
